Among the data in doi:10.1101/2023.09.17.558134 (bioRxiv, 2023) are binding values, retold here.

The chains behind the UniProt entries cited, without tags or fusion partners.
UniProt P0A8T7, whole entry: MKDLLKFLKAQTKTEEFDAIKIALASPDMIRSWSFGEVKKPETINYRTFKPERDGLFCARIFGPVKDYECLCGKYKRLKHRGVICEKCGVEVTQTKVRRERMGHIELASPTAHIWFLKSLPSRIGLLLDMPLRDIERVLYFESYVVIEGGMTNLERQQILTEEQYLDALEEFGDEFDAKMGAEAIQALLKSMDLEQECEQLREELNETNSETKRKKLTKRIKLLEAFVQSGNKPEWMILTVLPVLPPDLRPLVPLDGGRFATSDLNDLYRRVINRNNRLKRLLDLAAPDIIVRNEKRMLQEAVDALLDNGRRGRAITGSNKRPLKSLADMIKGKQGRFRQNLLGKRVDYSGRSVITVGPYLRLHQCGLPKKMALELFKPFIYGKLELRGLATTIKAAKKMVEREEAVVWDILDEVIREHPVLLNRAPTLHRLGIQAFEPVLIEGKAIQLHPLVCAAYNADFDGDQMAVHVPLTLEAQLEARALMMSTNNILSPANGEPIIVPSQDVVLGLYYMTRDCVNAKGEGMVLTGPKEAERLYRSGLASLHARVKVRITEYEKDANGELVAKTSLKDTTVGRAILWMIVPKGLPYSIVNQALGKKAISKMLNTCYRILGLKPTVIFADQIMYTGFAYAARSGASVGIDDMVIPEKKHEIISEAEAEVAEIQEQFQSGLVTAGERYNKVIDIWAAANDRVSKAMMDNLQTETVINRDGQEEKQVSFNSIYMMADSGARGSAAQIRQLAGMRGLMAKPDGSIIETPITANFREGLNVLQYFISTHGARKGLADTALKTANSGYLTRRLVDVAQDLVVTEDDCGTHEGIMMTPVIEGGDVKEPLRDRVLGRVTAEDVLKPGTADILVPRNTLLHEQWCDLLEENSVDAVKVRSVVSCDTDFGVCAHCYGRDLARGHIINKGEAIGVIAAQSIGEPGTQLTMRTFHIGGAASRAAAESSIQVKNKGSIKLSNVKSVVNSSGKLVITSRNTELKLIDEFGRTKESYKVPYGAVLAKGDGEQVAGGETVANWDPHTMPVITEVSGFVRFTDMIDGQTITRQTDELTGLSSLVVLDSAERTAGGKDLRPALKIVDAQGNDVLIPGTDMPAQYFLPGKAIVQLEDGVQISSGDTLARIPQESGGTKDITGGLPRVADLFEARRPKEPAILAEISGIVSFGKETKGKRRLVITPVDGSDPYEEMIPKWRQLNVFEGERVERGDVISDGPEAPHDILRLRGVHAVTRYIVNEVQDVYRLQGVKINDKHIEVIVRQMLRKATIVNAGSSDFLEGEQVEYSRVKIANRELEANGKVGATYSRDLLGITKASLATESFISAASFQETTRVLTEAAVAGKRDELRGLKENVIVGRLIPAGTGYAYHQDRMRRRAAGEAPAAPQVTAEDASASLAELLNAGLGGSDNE

The experiment addresses RNA polymerase β′ subunit (RpoC), chromosomally 3×FLAG-tagged (E. coli) (UniProt P0A8T7). Description: affinity purification with mass spectrometry.

These are yes or no findings as the source states them, for the method shown. Binding seen in cells or lysates may run through a third protein. These calls come from enrichment with a bait or labelling near it, and not all partners need be listed.

B1: sigma factor FecI, endogenous (protein, UniProt P23484 1-173)
chain: MSDRATTTASLTFESLYGTHHGWLKSWLTRKLQSAFDADDIAQDTFLRVMVSETLSTIRDPRSFLCTIAKRVMVDLFRRNALEKAYLEMLALMPEGGAPSPEERESQLETLQLLDSMLDGLNGKTREAFLLSQLDGLTYSEIAHKLGVSISSVKKYVAKAVEHCLLFRLEYGL
On to B1, for which the binding entry is listed as “binds”.
